# Measurements: publication PMC8124066
# Chains of the proteins cited; added tags and fusions are not shown. Lines headed by an entry give the natural chain unless they say otherwise; changes in a name come on top.
# UniProt P46935: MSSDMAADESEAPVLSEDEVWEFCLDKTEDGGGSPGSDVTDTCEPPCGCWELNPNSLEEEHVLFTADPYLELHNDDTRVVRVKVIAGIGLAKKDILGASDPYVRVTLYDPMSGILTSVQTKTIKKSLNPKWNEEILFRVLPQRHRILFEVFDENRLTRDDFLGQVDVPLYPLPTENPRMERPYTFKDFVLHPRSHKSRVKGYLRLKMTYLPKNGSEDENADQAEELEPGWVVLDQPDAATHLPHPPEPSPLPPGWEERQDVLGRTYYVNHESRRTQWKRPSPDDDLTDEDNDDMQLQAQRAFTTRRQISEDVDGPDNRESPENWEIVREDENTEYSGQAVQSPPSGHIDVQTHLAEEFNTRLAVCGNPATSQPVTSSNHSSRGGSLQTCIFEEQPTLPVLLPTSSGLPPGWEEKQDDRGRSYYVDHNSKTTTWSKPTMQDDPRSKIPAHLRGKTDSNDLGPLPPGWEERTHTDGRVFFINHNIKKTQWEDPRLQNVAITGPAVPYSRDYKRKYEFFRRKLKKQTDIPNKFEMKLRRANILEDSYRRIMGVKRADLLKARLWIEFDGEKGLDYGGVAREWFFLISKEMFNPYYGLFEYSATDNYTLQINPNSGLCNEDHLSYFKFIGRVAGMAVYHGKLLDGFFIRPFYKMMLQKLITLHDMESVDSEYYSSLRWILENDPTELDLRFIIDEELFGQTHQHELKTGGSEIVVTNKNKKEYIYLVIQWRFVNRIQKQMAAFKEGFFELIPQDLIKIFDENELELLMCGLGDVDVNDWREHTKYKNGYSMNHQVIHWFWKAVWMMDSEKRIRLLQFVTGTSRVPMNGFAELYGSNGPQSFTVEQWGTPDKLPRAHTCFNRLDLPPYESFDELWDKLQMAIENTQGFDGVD
# UniProt Q08775: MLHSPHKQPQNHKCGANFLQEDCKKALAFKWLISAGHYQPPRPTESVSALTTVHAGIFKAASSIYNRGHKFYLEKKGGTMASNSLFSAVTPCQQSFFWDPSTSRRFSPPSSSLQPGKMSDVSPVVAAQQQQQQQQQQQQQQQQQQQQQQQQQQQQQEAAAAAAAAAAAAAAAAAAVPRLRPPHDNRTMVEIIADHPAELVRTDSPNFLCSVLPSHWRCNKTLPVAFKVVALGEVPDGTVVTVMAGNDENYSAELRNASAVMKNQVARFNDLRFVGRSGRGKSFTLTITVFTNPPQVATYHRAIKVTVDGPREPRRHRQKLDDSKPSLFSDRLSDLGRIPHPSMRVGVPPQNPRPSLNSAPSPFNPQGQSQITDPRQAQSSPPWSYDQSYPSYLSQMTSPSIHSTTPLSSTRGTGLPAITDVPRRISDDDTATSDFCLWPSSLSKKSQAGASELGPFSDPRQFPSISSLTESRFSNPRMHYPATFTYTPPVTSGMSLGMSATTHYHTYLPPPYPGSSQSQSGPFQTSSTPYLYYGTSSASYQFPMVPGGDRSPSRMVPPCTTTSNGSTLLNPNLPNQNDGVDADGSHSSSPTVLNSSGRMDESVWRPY
# No constants are given. Whether binding was seen depends on the method and setting. Binding seen in cells or lysates may run through a third protein.
# Molecular target: Flag-tagged Nedd4ΔWW (UniProt P46935)
# Test: co-IP; Myc-Runx2 co-transfected with flag-Nedd4 constructs in M-BMSCs; whole-cell lysates immunoprecipitated with anti-flag antibody, immunoblotted with anti-flag or anti-myc antibodies
substance,measurement,value
Myc-Runx2 (from UniProt Q08775 1-607),binding,no binding
